Experimental data as given in US11230581B2, “Peptides and combination of peptides for use in immunotherapy against ovarian cancer and other cancers” (Immatics Biotechnologies GmbH, priority 2015, dated 2022).

Legend:
[1] = test system: ovarian cancer samples; assay: Relative LC-MS quantitation of HLA-presented peptides: presentation and over-presentation on ovarian cancer vs a panel of normal tissues (presentation score); design: species or system human; key: +++: very highly over-presented on tumors compared to a panel of normal tissues; ++: highly over-presented on tumors compared to a panel of normal tissues; +: over-presented on tumors compared to a panel of normal tissues; settings: over-presentation on tumors compared to a panel of normal tissues
[2] = test system: additional tumor types; assay: LC-MS detection and over-presentation of the peptides on additional tumor types, cell lines and primary cultures; design: species or system human; settings: for Other relevant organs/ cancerous diseases: Table 4A: additional tumor types on which the peptide was found, over-presented on more than 5% of measured tumor samples, or presented on more than 5% with ratio of geometric means tumor vs normal tissues larger than 3
[3] = additional tumor types with over-presentation on more than 5% of the measured tumor samples, or presentation on more than 5% with ratio of geometric means tumor vs normal tissues larger than 3
[4] = amendment of Table 4: additional tumor types showing over-presentation (including specific presentation) on more than 5% of measured tumor samples, or presentation on more than 5% with ratio of geometric means tumor vs normal tissues larger than 3

Substance	Peptide Presentation (presentation score) [1]	Other relevant organs/ cancerous diseases [2]	Additional organs/cancerous diseases [2, 3]	Additional organs/cancerous diseases [2, 4]
386 (ILFRYPLTI; listed as Homo sapiens) [compound 386]	++	Urinary bladder Cancer	Melanoma, Uterine Cancer, AML	
517 (LLMPIPEGLTL; listed as Homo sapiens) [compound 517]	+	NSCLC, SCLC, HCC, Melanoma	Urinary Bladder Cancer, Uterine Cancer, HNSCC	
414 (YVDDIFLRV; listed as Homo sapiens) [compound 414]	+		GC, Melanoma	
557 (KLYDDMIRL; listed as Homo sapiens) [compound 557]	+		Brain Cancer, NHL	
282 (LLADVVPTT; listed as Homo sapiens) [compound 282]	+	Leukemia, Melanoma	CLL, Uterine Cancer, AML, NHL, HNSCC	
149 (NLLELFVQL; listed as Homo sapiens) [compound 149]	+++	SCLC, Leukemia, BrCa, Urinary bladder Cancer, Uterine Cancer		
560 (ALWDIETGQQTTT; listed as Homo sapiens) [compound 560]	+	SCLC, HCC, Melanoma, Esophageal Cancer	CLL, Urinary Bladder Cancer, Uterine Cancer, Gallbladder Cancer and Bile Duct Cancer, NHL, HNSCC	
429 (GLVNDLARV; listed as Homo sapiens) [compound 429]	+	NSCLC, HCC	SCLC, BRCA, Melanoma, Gallbladder Cancer and Bile Duct Cancer, NHL	
129 (GLLDGGVDILL; listed as Homo sapiens) [compound 129]	++	HCC, Leukemia, Esophageal Cancer, Uterine Cancer		HNSCC
430 (HLYSSIEHLTT; listed as Homo sapiens) [compound 430]	+	NSCLC, CRC, HCC, MCC, Esophageal Cancer	SCLC, BRCA, Urinary Bladder Cancer, NHL	
179 (KVLNELYTV; listed as Homo sapiens) [compound 179]	+++	NSCLC		CRC, BRCA, Melanoma, Uterine Cancer
208 (KISPVTFSV; listed as Homo sapiens) [compound 208]	+++	HCC		
238 (YLISFQTHI; listed as Homo sapiens) [compound 238]	+++		CLL	
275 (YLVYILNEL; listed as Homo sapiens) [compound 275]	+	RCC, GC, HCC, PC, Leukemia, Esophageal Cancer	CLL, Melanoma, NHL	
610 (LLAPTPYIIGV; listed as Homo sapiens) [compound 610]	+	NSCLC, SCLC, RCC, Brain Cancer, CRC, HCC, PrC, Leukemia, BrCa, MCC, Melanoma, Esophageal Cancer, Urinary bladder Cancer, Gallbladder Cancer, Bile Duct Cancer		
144 (YIMEPSIFNTL; listed as Homo sapiens) [compound 144]	++	HCC, Leukemia, Melanoma, Urinary bladder Cancer		CLL, BRCA
348 (ILLDVKTRL; listed as Homo sapiens) [compound 348]	+++	NSCLC, CRC, Esophageal Cancer, Urinary bladder Cancer	Melanoma, Gallbladder Cancer and Bile Duct Cancer, HNSCC	
363 (KVLDVSDLESV; listed as Homo sapiens) [compound 363]	++	Urinary bladder, Endometrium	NSCLC, Esophageal Cancer, Urinary Bladder Cancer, Gallbladder Cancer and Bile Duct Cancer, HNSCC	
75 (GLLEVMVNL; listed as Homo sapiens) [compound 75]	+++	SCLC		Gallbladder Cancer and Bile Duct Cancer
31 (YLAPELFVNV; listed as Homo sapiens) [compound 31]	+++	SCLC, GC, Leukemia, Melanoma		BRCA, Uterine Cancer

Substance	Peptide Presentation (presentation score) [1]	Other relevant organs/ cancerous diseases [2]	Additional organs/cancerous diseases [2, 3]	Additional organs/cancerous diseases [2, 4]
360 (ALDSGASLLHL; listed as Homo sapiens) [compound 360]	+	RCC, HCC, Esophageal Cancer, Urinary bladder Cancer, Uterine Cancer	HNSCC	
373 (SLLEDKGLAEV; listed as Homo sapiens) [compound 373]	+	NSCLC, SCLC, Leukemia, BrCa, MCC, Melanoma		
147 (SLLEAVSFL; listed as Homo sapiens) [compound 147]	+			Gallbladder Cancer and Bile Duct Cancer, AML, HNSCC
174 (ALAQYLITA; listed as Homo sapiens) [compound 174]	++	Brain Cancer, HCC, PrC, Esophageal Cancer, Urinary bladder Cancer		SCLC, BRCA, Melanoma, Gallbladder Cancer and Bile Duct Cancer
281 (ILRESTEEL; listed as Homo sapiens) [compound 281]	+		Melanoma	
204 (KIAENVEEV; listed as Homo sapiens) [compound 204]	+++	NSCLC, HCC, PC, Leukemia, BrCa, Esophageal Cancer		
271 (LVYPLELYPA; listed as Homo sapiens) [compound 271]	++	RCC, HCC, Leukemia, BrCa, Esophageal Cancer, Urinary bladder Cancer	Gallbladder Cancer and Bile Duct Cancer	
480 (ALLEDSCHYL; listed as Homo sapiens) [compound 480]	+	NSCLC, CRC, HCC, Leukemia, Esophageal Cancer	HNSCC	
311 (RLYTGMHTV; listed as Homo sapiens) [compound 311]	+	RCC, CRC, PC, Esophageal Cancer, Urinary bladder Cancer	SCLC, BRCA, NHL, HNSCC	
211 (LLWPGAALL; listed as Homo sapiens) [compound 211]	+++		CLL, AML, NHL	
521 (MLLTKLPTI; listed as Homo sapiens) [compound 521]	++	NSCLC, SCLC, CRC, HCC, BrCa, Melanoma, Urinary bladder Cancer	Brain Cancer, CLL, Uterine Cancer, AML, NHL, HNSCC	
574 (YLLQEPPRTV; listed as Homo sapiens) [compound 574]	+	SCLC		
24 (SLSDGLEEV; listed as Homo sapiens) [compound 24]	++	CRC, PC, Urinary bladder Cancer		NSCLC, BRCA, Melanoma, Uterine Cancer, HNSCC
97 (SLINGSFLV; listed as Homo sapiens) [compound 97]	+++	NSCLC, RCC, CRC, HCC, PC, Melanoma, Esophageal Cancer		CLL, BRCA, Urinary Bladder Cancer, Uterine Cancer, Gallbladder Cancer and Bile Duct Cancer
619 (ALQDRVPLA; listed as Homo sapiens) [compound 619]	+	Brain Cancer, CRC, Esophageal Cancer, Uterine Cancer	BRCA, Gallbladder Cancer and Bile Duct Cancer	
87 (ALPEAPAPLLPHIT; listed as Homo sapiens) [compound 87]	+++	HCC, PC, Urinary bladder Cancer, Gallbladder Cancer, Bile Duct Cancer		
500 (SLMEDQVLQL; listed as Homo sapiens) [compound 500]	+	SCLC, Colon, Rectum	CLL, AML	
15 (VLLTFKIFL; listed as Homo sapiens) [compound 15]	+++			Uterine Cancer, NHL
163 (ALDEMGDLLQL; listed as Homo sapiens) [compound 163]	+++	HCC		BRCA, Gallbladder Cancer and Bile Duct Cancer, HNSCC
83 (ILAPTVMMI; listed as Homo sapiens) [compound 83]	+++			Melanoma
